Test results from PubChem BioAssay AID2685 (National Center for Advancing Translational Sciences (NCATS), 2010).
Some of the results follow. These are further read-outs of the screen, such as a control signal, another cell line or another target. No call is given for them. Compounds called inactive in the main read-out are mostly missing here. Words in brackets tell the shape of the fitted curve; partial curves, single points and poor fits give uncertain potencies.

Experiment: qHTS Assay for Lipid Storage Modulators in Drosophila S3 Cells;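 on cell number change: cells counted by Cell Tracker Red CMTPX staining in the red channel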
Settings: BODIPY lipid droplet fluorescence, 18-24 h; for cell number change: measured here: cell count max response, cells fed with added oleic acid
In short: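 Drosophila S3 cells loaded with oleic acid (400 uM, as added) and compounds at several concentrations; lipid droplets imaged by 488-nm laser-scanning cytometry, 500–530 nm intensity and object ratio to cell channel. Percent activity normalized to 20 uM Triacsin C.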

[1] = measured here: lipid fluorescence (Fed channel) AC50, cells fed with added oleic acid
[2] = measured here: cell number channel AC50, cells fed with added oleic acid

Row | Compound | cell number change [%] | AC50 [1] | AC50 [2]
1 | CN(C)S(=O)(=O)Oc1cccc(C(=O)Nc2ccc(Cl)c(Cl)c2)c1 | -13.6 | 29.1 µM [falling, single point] | –
2 | O=C(c1cnn2c1NC(c1ccco1)CC2C(F)(F)F)N1CCN(c2cccc(Cl)c2)CC1 (stereo unspecified) | 74.8 | 1.64 µM [rising, full curve] | 1.84 µM [rising, full curve]
3 | O=C(c1cc2cc(Cl)ccc2o1)N1CCCCCC1 | 150 | 0.103 µM [falling, full curve, poor fit] | 11.6 µM [rising, partial curve]
4 | O=C1C(=Cc2cccs2)C(=O)c2ccccc21 | – | 8.2 µM [falling, partial curve] | –
5 | Cc1cc(C)c(O)c(-c2cc(C(=O)NCc3ccccc3)[nH]n2)c1 | -29 | 29.1 µM [falling, single point] | –
6 | CCOc1ccc(N2CC(C(=O)NNC(=O)c3ccc(Br)cc3)CC2=O)cc1 (stereo unspecified) | – | 4.61 µM [falling, partial curve, poor fit] | –
7 | Cc1cc(Cl)ccc1NC(=S)N1CCOCC1 | 8.14 | 14.6 µM [rising, partial curve] | –
8 | CC(=O)NC(CC(=O)Nc1ccc(S(=O)(=O)NC2=NCCCCC2)cc1)c1ccccc1 (stereo unspecified) | 23.1 | 0.146 µM [rising, full curve, poor fit] | –
9 | CCOc1ccc(N(CC(=O)Nc2ccc3c(c2)OCCO3)S(=O)(=O)c2c(C)noc2C)cc1 | – | 0.206 µM [rising, full curve] | 0.231 µM [rising, full curve, poor fit]
10 | Cc1cccc(Nc2nc(NCC3CCCO3)nc(N)c2[N+](=O)[O-])c1 (stereo unspecified) | -12.3 | 0.231 µM [rising, full curve, poor fit] | –
11 | Cn1c(CN2CCCC2)nc2cc(NS(=O)(=O)c3ccc(Cl)cc3)ccc21 | – | 1.03 µM [rising, partial curve] | 0.517 µM [rising, full curve]
12 | Cc1cc(OCc2cc(C(=O)N(C)CC3CCOCC3)no2)cc(C)c1Cl | -57.4 | 29.1 µM [falling, single point] | 29.1 µM [falling, single point]
13 | CCOC(=O)c1nnn(CC(=O)NC(=O)Nc2ccccc2)c1C(=O)OCC | 20.4 | – | 0.259 µM [falling, partial curve, poor fit]
14 | Cc1ccc(C(=O)N2CCN(CCNC(=O)C(=O)NCc3ccc(Cl)cc3)CC2)cc1 | – | 29.1 µM [rising, single point] | –
15 | CCCNC(=O)C(Cc1ccc(C(F)(F)F)cc1)NC(=O)c1ccc2ccccc2n1 (stereo unspecified) | -24.7 | 18.4 µM [falling, single point] | –
16 | CCOC(=O)N/N=C\c1ccccc1OC/C=C/c1ccccc1 | 37.3 | 0.184 µM [rising, full curve, poor fit] | 20.6 µM [rising, partial curve, poor fit]
17 | CN(C)c1ccc(NC(=O)Nc2cccc(Cl)c2)cc1 | – | – | 1.64 µM [rising, partial curve, poor fit]
18 | C=C(C)C1CC=C(C)/C(=N\NC(=S)Nc2ccc(C)cc2)C1 (stereo unspecified) | 45.5 | – | 6.51 µM [falling, single point]

Entries above that have nitrogen in an aromatic ring, in the order listed:
Row | Compound | cell number change [%] | AC50 [1] | AC50 [2]
2 | O=C(c1cnn2c1NC(c1ccco1)CC2C(F)(F)F)N1CCN(c2cccc(Cl)c2)CC1 (stereo unspecified) | 74.8 | 1.64 µM [rising, full curve] | 1.84 µM [rising, full curve]
5 | Cc1cc(C)c(O)c(-c2cc(C(=O)NCc3ccccc3)[nH]n2)c1 | -29 | 29.1 µM [falling, single point] | –
9 | CCOc1ccc(N(CC(=O)Nc2ccc3c(c2)OCCO3)S(=O)(=O)c2c(C)noc2C)cc1 | – | 0.206 µM [rising, full curve] | 0.231 µM [rising, full curve, poor fit]
10 | Cc1cccc(Nc2nc(NCC3CCCO3)nc(N)c2[N+](=O)[O-])c1 (stereo unspecified) | -12.3 | 0.231 µM [rising, full curve, poor fit] | –
11 | Cn1c(CN2CCCC2)nc2cc(NS(=O)(=O)c3ccc(Cl)cc3)ccc21 | – | 1.03 µM [rising, partial curve] | 0.517 µM [rising, full curve]
12 | Cc1cc(OCc2cc(C(=O)N(C)CC3CCOCC3)no2)cc(C)c1Cl | -57.4 | 29.1 µM [falling, single point] | 29.1 µM [falling, single point]
13 | CCOC(=O)c1nnn(CC(=O)NC(=O)Nc2ccccc2)c1C(=O)OCC | 20.4 | – | 0.259 µM [falling, partial curve, poor fit]
15 | CCCNC(=O)C(Cc1ccc(C(F)(F)F)cc1)NC(=O)c1ccc2ccccc2n1 (stereo unspecified) | -24.7 | 18.4 µM [falling, single point] | –

The listing continues:

Row | Compound | cell number change [%] | AC50 [1] | AC50 [2]
19 | CN(Cc1ccccc1N1CCCC1)C(=O)c1cc2cc(Cl)ccc2o1 | 37.4 | – | 16.4 µM [rising, partial curve, poor fit]
20 | CC(O/N=C\c1ccccc1O)C(=O)Nc1ccccc1C(=O)N1CCOCC1 (stereo unspecified) | 41.4 | 29.1 µM [rising, single point] | 0.206 µM [falling, full curve, poor fit]
21 | C=CCn1cc(-c2ccccc2)cc(C#N)c1=O | -14.6 | 6.51 µM [rising, single point] | –
22 | CSc1nc2ccccc2c(=O)n1N | 30.4 | 0.116 µM [rising, single point] | 13 µM [rising, single point]
23 | COc1ccc(-n2c(=O)[nH]c3c(C(N)=O)nc(C4CCCCC4)nc32)cc1 | 11.4 | – | –
24 | CCN(C(=O)CSc1nnc(C)n1Cc1ccccc1)C1CCS(=O)(=O)C1 (stereo unspecified) | 7.29 | 29.1 µM [falling, single point] | –
25 | Cc1cccc(N2C(=O)N3[C@H](c4ccc(Br)cc4)[C@@H]4C(=O)N(C(C)(C)C)C(=O)[C@@H]4[C@]3(C)C2=O)c1 | -8.41 | – | –
26 | c1ccc(-c2nc(-c3cccnc3)cs2)cc1 | -32.2 | – | 29.1 µM [falling, single point]
27 | CC1Cc2ccccc2N1C(=O)C1CCCN1S(=O)(=O)c1ccc(Cl)cc1 (stereo unspecified) | 26.7 | 7.31 µM [falling, single point] | –
28 | COC(=O)c1ccc(COc2ccccc2/C=C(\C#N)C(=O)Nc2c(C)cccc2C)cc1 | 1.35 | 6.51 µM [falling, partial curve] | –
29 | CCOC(=O)c1ccccc1NC(=O)CSc1nc2ccccc2n1CC(=O)N1CCCC1 | 45.2 | 0.461 µM [rising, full curve] | 0.231 µM [rising, full curve, poor fit]
30 | CCOC(=O)C1=C(COC(=O)C2(C)CC2(Cl)Cl)NC(=O)NC1c1ccc(OC)cc1 (stereo unspecified) | 9.02 | 14.6 µM [rising, single point] | –
31 | Cc1c(CCOC(=O)CC23CC4CC(CC(C4)C2)C3)sc[n+]1CC(=O)c1ccc(Br)cc1 | -92.3 | 29.1 µM [falling, single point] | 29.1 µM [falling, single point]
32 | COc1ccc(CCNC(=O)Cn2nc([N+](=O)[O-])c(Br)c2C)cc1OC | -28.7 | – | 0.0058 µM [falling, full curve]
33 | CC(C)(C)c1cc(C(=O)N/N=C/c2ccc([N+](=O)[O-])s2)n[nH]1 | -23.6 | 11.6 µM [falling, partial curve] | –
34 | COCCCN1C(=O)c2ccc(C(=O)Nc3ccccc3Cl)cc2C1=O | -0.202 | 0.82 µM [falling, full curve, poor fit] | –
35 | COc1ccccc1NC(=O)c1cc2c(CO)cnc(C)c2oc1=Nc1cccc(C(N)=O)c1 | 1.8 | – | –
